Results taken from paper PMC6393529.
Results are given in words; binding and its absence hold for the method and conditions named. In cells and extracts the contact can be indirect.

Biological target: T1, β-dystroglycan (endogenous, C2C12) (mouse (endogenous in C2C12)) (UniProt Q62165)
T1 sequence: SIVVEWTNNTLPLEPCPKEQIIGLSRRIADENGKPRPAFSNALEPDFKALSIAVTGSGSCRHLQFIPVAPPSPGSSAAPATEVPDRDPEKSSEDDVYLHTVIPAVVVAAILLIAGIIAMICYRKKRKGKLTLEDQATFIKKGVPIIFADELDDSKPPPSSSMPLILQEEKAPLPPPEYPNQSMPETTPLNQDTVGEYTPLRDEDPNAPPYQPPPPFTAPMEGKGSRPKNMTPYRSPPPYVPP
Experiment: co-IP; C2C12 lysates (500 ug protein) precipitated with anti-β-DG antibody (Mandag) and protein G-agarose, overnight at 4 °C; lysis buffer 50 mM Tris-HCl pH 8, 150 mM NaCl, 1% Triton X-100; western blot for β-DG, UBF, B23, fibrillarin; nonspecific IgG in parallel

B1: fibrillarin (protein, UniProt P35550 1-327)
chain: MKPGFSPRGGGFGGRGGFGDRGGRGGGRGGRGGFGGGRGGFGGGGRGRGGGGGGFRGRGGGGGRGGGFQSGGNRGRGGGRGGKRGNQSGKNVMVEPHRHEGVFICRGKEDALVTKNLVPGESVYGEKRVSISEGDDKIEYRAWNPFRSKLAAAILGGVDQIHIKPGAKVLYLGAASGTTVSHVSDIVGPDGLVYAVEFSHRSGRDLINLAKKRTNIIPVIEDARHPHKYRMLIAMVDVIFADVAQPDQTRIVALNAHTFLRNGGHFVISIKANCIDSTASAEAVFASEVKKMQQENMKPQEQLTLEPYERDHAVVVGVYRPPPKVKN
- binding: no binding
